Where “and” joins values, the source holds several entries; their conditions need not be identical. Equal entries are not always repeated. The source gives many values for each of these; only a part stands here.
System: MDA-MB-468 complex spheroids with HUVEC/MSC, viability
Test: Anticancer human tumor MDA-MB-468 cell line growth inhibition;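 further: spheroids exposed to agents for seven days; 100% = DMSO vehicle control viability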
Settings: compound 10 µM; stronger effect = lower value
Source text: Multicellular complex tumor spheroid response to LSD1 Inhibitor Iadademstat in combination with a variety of drugs and investigational agents in selected tumor cell lines
The current study was undertaken to assess response to LSD1 inhibitors in combination with standard-of-care drugs and investigational agents in solid tumor complex spheroid models as well as in the K-562 leukemia. Complex spheroids include a stromal component modeled by human endothelial cells (HUVEC) and fibroblasts modeled by human mesenchymal stem cells (MSCs). The concentration ranges selected for each drug and investigational agent were based upon clinically achievable concentrations if the clinical Cmax of the agent was known.
Compounds. The drugs and investigational agents used in this study are listed on Table 1. All of the agents used, including staurosporine (NSC755774) and gemcitabine (NSC613327), were obtained from the Developmental Therapeutics Program, NCI. FDA-approved anticancer drugs are available from the NCI at http://dtp.nci.nih.gov/branches/dscb/oncology_drugset_explanation.html. Drugs and investigational agents were >95% pure by proton nuclear magnetic resonance (NMR) and liquid chromatography/mass spectrometry (LC/MS). […] If the clinical Cmax for an agent had not been determined, the highest concentration tested was 10 microM. […]

NC1CCC(NC2CC2c2ccccc2)CC1 (stereo unspecified)
viability, T/C: 87.9% and 72.4%
